{
  "source": "patent US7399826B1",
  "about": "“Peptide for promoting healing of fractures” (priority 2003, dated 2008)",
  "key": {"[1]": {"tested_on": "ulnar osteotomies in New Zealand rabbits", "assay": "Ulnar osteotomy fracture healing study in rabbits", "type": "in vivo", "settings": "rabbit ulnar osteotomy", "method": "Ulnar osteotomies were carried out in forty, three-month-old New Zealand rabbits. Half of the rabbits were placed in a study group while the other half was placed in a control group. All the rabbits were anesthetized using intramuscular ketamine 35 mg/kg body weight mixed with Xylazine 5 mg/kg body weight and an ophthalmic band with gentamycin ophthalmic ointment. A dose of prophylactic intramuscular cefuraxmine 25 mg/kg body weight was also administered. The forelimb was shaved and prepped in a sterile fashion. Through a posterior incision, the muscles were retracted and the shaft of the ulna was identified. Osteotomy was carried out equidistant between the olecranon and the wrist joint. The osteotomy was irrigated with normal saline. The wound was closed in layers and dressed with betadine and opsite spray. The animals were kept together in similar conditions. On the third post-operative day, the study group was injected with about 2.5-5 mg/kg of the peptide, synthesized as described above, in 0.25 ml of sterile water around the osteotomy site, while the control group received 0.25 ml of normal saline at the osteotomy site. Every week, five rabbits in the control group and five in the study group were sacrificed and their limbs were dissected and stored in 2% formalin. The study was carried out for four weeks. The limbs were sent to an animal pathologist at the Animal Reference Lab at Salt Lake City, Utah after the fourth week."}, "[2]": {"tested_on": "bone production", "assay": "Experimental studies of bone production in non-rodent and rodent animals", "type": "in vivo"}},
  "note": "Part of at least one peptide drawing is inferred or uncertain, most often the ends. No end group written: not given here.",
  "data": [
    {"sequence": "MIFVKTLTGKTIL [SHMSP, Met-Ile-Phe-Val-Lys-Thr-Leu-Thr-Gly-Lys-Thr-Ile-Leu]", "values": [
      {"measurement": "histological evaluation of healing pattern", "setting": "[1]; about 2.5-5 mg/kg injected at osteotomy site on day 3, control showed extensive cartilaginous response with little to no osteoid", "result": "much more osteoid and a sheet of new bone in and around the periosteal surface and across the medullary cavity"},
      {"measurement": "radiographic analysis: union of osteotomies", "setting": "[1]; about 2.5-5 mg/kg injected at osteotomy site on day 3, control union not complete even by end of fourth week", "result": "all united by the beginning of the third week"},
      {"measurement": "fracture healing (overall result)", "setting": "[1]; about 2.5-5 mg/kg peptide in 0.25 ml sterile water injected around osteotomy site on third post-operative day, vs saline control", "result": "effective in enhancing fracture healing"},
      {"measurement": "bone production", "setting": "[2]", "result": "stimulates bone production"}
    ]}
  ]
}
